Data published in publication PMC10717271.
These are yes or no findings as the source states them, for the method shown. In cells and extracts the contact can be indirect. Some entries that bind do so weakly or less than the wild type. Where a sequence is shown, tags or fusion partners need not be part of it.

Protein sequences, listed by entry. Tags and fused reporters are not part of them.
UniProt P01106: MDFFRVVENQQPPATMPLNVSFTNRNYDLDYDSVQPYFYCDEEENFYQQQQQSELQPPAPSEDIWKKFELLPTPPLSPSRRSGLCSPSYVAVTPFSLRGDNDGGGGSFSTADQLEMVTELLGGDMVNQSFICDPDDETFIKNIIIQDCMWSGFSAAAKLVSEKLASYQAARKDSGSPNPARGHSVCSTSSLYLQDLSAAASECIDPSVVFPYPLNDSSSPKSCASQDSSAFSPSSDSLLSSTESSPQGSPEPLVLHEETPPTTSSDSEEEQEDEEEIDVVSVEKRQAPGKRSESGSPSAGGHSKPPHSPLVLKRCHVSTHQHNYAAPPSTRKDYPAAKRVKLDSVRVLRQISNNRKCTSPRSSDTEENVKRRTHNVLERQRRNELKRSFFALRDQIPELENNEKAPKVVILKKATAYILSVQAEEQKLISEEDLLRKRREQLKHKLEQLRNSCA

Biological target: HA-MYC (UniProt P01106)
Assay: co-IP; HEK293T cells transiently transfected with FLAG-USP13 and HA-MYC; lysis buffer 50 mM Tris pH 8.0, 150 mM NaCl, 1 mM EDTA, 0.1% NP-40; Protein G agarose beads, 1 µg of the specific antibody, 500 µg of lysate; western blot

- binding: binds
B1: FLAG-USP13 (enzyme, UniProt Q92995 1-863)
chain: MQRRGALFGMPGGSGGRKMAAGDIGELLVPHMPTIRVPRSGDRVYKNECAFSYDSPNSEGGLYVCMNTFLAFGREHVERHFRKTGQSVYMHLKRHVREKVRGASGGALPKRRNSKIFLDLDTDDDLNSDDYEYEDEAKLVIFPDHYEIALPNIEELPALVTIACDAVLSSKSPYRKQDPDTWENELPVSKYANNLTQLDNGVRIPPSGWKCARCDLRENLWLNLTDGSVLCGKWFFDSSGGNGHALEHYRDMGYPLAVKLGTITPDGADVYSFQEEEPVLDPHLAKHLAHFGIDMLHMHGTENGLQDNDIKLRVSEWEVIQESGTKLKPMYGPGYTGLKNLGNSCYLSSVMQAIFSIPEFQRAYVGNLPRIFDYSPLDPTQDFNTQMTKLGHGLLSGQYSKPPVKSELIEQVMKEEHKPQQNGISPRMFKAFVSKSHPEFSSNRQQDAQEFFLHLVNLVERNRIGSENPSDVFRFLVEERIQCCQTRKVRYTERVDYLMQLPVAMEAATNKDELIAYELTRREAEANRRPLPELVRAKIPFSACLQAFSEPENVDDFWSSALQAKSAGVKTSRFASFPEYLVVQIKKFTFGLDWVPKKFDVSIDMPDLLDINHLRARGLQPGEEELPDISPPIVIPDDSKDRLMNQLIDPSDIDESSVMQLAEMGFPLEACRKAVYFTGNMGAEVAFNWIIVHMEEPDFAEPLTMPGYGGAASAGASVFGASGLDNQPPEEIVAIITSMGFQRNQAIQALRATNNNLERALDWIFSHPEFEEDSDFVIEMENNANANIISEAKPEGPRVKDGSGTYELFAFISHMGTSTMSGHYICHIKKEGRWVIYNDHKVCASERPPKDLGYMYFYRRIPS
